Reference: patent US20150110777A1 (PROTHENA BIOSCIENCES, published 2015)
Changes are numbered by the printed parent chain. No constants are given. Whether binding was seen depends on the method and setting. Some results given as binding are weak or reduced against the parent protein; the word gives no strength. Blank lines part the entries; values can stand above or below the binder they belong to.

Experiments:
[1] = target: T1, human islet-amyloid polypeptide (IAPP) (human); assay: ELISA on hIAPP, values normalized to h6B8 H2L1
T1 construct: also called hIAPP; human IAPP
T1 peptide: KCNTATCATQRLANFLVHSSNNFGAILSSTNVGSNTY

[2] = target: T1, human islet-amyloid polypeptide (IAPP); assay: ELISA screen of hybridomas on hIAPP

binding [1]: binds
B1: humanized 6B8 H2L1 antibody (antibody, V domains shown)
VH: QVQLQQSGAEVKKPGASVKVSCKASGYTFTSYWMHWVRQRPGQGLEWMGEINPRNGHSNYNEKIRNRVTMTADTSTSTVYMELSSLRSEDTAVYYCTVNRGFYYFFDVWGQGTTVTVSS
VL: DVLMTQSPLSLPVTPGEPASISCRSSQSIAHSNGNTYLEWYLQKPGQSPQLLIYKVSNRFSGVPDRFSGSGSGTDFTLKISRVEAEDVGVYYCFQGSHIPRTFGGGTKLEIKR
notes: Only variable regions are tied to the tested antibody; also called h6B8-H2L1; h6B8 H2L1

binding [2]: binds
B2: murine 6B8 antibody (LA21-6B8) (antibody, V domains shown)
VH: QVQLQQPGAELVKPGASVRLSCKASGYTFTSYWMHWVKQRPGQGLEWLGEINPRNGHSNYNEKIRNKATLTADTSSSTVSMQLSSLTSEDSAVYYCTVNRGFYYFFDVWGTGTTVTVSS
VL: B1 VL with T14S, P15L, E17D, P18Q, Q50K, V88L
notes: also called m6B8; mouse 6B8
